Measurements: the supplement of paper PMC12067093, “Discovery and optimisation of a covalent ligand for TRIM25 and its application to targeted protein ubiquitination” (Chemical Science, 2025)
Some of the results follow.

Protein sequences, listed by entry. Tags and fused reporters are not part of them. Lines headed by an entry give the natural chain unless they say otherwise; changes in a name come on top.
UniProt Q8NB90: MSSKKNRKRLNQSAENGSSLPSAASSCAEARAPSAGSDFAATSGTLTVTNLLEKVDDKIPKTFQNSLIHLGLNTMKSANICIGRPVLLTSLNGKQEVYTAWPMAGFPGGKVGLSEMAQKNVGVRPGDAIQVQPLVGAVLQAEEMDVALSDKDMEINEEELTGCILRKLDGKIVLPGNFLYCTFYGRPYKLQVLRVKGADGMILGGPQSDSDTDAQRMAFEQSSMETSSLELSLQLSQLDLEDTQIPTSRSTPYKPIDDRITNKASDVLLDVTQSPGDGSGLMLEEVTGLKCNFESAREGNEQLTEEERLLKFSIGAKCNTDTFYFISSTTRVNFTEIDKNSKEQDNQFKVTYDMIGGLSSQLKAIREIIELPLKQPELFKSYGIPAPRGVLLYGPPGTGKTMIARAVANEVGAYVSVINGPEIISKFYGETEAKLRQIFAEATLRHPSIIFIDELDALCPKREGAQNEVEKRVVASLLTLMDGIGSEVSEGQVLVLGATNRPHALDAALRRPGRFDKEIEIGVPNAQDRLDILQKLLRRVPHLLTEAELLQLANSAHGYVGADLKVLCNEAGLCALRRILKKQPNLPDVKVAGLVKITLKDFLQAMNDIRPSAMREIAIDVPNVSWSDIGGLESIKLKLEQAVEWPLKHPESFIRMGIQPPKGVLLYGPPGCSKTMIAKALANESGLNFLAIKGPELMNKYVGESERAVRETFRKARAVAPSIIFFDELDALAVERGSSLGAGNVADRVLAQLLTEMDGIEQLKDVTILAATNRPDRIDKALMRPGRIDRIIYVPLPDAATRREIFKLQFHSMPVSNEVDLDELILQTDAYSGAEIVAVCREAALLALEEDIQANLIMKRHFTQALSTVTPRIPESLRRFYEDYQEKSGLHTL
UniProt P08047, whole entry, looked up: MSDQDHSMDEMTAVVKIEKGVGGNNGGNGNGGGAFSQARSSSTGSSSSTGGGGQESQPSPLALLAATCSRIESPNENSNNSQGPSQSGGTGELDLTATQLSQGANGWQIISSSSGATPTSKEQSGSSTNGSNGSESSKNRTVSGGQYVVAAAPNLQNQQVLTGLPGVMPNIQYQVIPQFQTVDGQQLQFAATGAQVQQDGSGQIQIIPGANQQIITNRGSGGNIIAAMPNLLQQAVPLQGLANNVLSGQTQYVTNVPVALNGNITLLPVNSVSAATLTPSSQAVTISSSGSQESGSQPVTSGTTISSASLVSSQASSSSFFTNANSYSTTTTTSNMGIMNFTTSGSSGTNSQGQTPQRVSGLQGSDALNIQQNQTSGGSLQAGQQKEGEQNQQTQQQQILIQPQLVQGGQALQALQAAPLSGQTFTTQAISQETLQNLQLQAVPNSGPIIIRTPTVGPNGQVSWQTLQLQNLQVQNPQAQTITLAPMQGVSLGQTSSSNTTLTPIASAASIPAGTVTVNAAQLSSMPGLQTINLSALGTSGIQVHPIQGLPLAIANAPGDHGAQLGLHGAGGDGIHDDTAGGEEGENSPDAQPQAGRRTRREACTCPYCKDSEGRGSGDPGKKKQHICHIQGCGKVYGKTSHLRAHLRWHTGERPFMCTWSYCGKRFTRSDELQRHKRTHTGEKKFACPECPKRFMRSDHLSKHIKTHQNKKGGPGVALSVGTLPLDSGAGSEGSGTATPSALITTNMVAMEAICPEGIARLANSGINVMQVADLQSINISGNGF
UniProt Q9HB58: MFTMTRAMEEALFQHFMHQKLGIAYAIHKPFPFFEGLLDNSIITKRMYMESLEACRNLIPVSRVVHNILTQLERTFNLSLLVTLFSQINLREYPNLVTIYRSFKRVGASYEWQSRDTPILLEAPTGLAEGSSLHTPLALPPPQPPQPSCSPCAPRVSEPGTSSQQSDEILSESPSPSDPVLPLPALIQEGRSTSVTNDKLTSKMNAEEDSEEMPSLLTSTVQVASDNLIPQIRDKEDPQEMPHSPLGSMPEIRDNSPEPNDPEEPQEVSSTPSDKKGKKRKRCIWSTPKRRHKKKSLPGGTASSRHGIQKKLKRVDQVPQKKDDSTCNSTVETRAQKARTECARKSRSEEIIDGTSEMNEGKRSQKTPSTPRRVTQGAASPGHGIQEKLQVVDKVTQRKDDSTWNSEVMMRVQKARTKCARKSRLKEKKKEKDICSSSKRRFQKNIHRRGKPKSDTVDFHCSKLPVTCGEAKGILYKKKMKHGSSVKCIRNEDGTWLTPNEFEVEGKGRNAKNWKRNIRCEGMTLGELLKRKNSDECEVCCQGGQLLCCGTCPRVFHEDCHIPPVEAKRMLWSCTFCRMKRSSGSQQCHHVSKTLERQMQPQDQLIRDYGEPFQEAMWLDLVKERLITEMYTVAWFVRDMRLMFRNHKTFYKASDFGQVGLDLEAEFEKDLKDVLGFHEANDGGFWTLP
UniProt P55769: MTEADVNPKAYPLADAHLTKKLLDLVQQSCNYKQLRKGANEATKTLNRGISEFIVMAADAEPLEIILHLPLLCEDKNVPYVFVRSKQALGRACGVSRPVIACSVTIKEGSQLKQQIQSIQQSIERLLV
UniProt P78362, whole entry, looked up: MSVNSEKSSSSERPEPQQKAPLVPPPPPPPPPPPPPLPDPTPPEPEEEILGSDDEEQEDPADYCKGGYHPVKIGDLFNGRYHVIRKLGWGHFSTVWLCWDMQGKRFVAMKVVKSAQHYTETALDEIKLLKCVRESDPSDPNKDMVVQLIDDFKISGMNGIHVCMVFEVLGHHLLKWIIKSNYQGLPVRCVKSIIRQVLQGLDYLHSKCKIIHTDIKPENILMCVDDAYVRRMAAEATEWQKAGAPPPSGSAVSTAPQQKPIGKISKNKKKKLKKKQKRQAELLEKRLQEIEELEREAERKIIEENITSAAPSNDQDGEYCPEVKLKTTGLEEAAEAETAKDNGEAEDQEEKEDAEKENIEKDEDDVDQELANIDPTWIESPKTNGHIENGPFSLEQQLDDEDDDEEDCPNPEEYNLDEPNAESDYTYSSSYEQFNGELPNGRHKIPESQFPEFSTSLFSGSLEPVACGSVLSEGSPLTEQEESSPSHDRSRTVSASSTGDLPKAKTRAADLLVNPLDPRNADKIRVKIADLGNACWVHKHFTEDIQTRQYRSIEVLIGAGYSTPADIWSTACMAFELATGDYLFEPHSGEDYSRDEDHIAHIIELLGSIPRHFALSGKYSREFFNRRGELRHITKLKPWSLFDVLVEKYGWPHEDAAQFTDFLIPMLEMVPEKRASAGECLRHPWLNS
UniProt Q9UHB9: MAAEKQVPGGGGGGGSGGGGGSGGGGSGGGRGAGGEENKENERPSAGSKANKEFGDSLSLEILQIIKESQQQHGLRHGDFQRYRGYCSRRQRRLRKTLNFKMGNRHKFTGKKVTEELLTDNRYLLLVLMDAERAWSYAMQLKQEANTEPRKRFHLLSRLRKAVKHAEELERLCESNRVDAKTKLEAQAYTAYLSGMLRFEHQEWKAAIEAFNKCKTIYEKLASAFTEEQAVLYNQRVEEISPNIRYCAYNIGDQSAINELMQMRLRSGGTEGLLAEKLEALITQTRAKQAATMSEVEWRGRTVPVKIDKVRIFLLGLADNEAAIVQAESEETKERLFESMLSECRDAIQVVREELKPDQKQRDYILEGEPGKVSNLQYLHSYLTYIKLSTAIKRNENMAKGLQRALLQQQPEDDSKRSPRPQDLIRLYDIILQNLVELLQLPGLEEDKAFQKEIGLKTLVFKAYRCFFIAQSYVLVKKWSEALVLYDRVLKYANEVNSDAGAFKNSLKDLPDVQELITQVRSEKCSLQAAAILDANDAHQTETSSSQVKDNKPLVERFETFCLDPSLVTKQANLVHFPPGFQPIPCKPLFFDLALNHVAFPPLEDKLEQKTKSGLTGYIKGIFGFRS
UniProt P49458: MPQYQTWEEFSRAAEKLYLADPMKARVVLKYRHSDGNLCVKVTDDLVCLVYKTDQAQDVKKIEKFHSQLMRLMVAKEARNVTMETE
UniProt Q92673: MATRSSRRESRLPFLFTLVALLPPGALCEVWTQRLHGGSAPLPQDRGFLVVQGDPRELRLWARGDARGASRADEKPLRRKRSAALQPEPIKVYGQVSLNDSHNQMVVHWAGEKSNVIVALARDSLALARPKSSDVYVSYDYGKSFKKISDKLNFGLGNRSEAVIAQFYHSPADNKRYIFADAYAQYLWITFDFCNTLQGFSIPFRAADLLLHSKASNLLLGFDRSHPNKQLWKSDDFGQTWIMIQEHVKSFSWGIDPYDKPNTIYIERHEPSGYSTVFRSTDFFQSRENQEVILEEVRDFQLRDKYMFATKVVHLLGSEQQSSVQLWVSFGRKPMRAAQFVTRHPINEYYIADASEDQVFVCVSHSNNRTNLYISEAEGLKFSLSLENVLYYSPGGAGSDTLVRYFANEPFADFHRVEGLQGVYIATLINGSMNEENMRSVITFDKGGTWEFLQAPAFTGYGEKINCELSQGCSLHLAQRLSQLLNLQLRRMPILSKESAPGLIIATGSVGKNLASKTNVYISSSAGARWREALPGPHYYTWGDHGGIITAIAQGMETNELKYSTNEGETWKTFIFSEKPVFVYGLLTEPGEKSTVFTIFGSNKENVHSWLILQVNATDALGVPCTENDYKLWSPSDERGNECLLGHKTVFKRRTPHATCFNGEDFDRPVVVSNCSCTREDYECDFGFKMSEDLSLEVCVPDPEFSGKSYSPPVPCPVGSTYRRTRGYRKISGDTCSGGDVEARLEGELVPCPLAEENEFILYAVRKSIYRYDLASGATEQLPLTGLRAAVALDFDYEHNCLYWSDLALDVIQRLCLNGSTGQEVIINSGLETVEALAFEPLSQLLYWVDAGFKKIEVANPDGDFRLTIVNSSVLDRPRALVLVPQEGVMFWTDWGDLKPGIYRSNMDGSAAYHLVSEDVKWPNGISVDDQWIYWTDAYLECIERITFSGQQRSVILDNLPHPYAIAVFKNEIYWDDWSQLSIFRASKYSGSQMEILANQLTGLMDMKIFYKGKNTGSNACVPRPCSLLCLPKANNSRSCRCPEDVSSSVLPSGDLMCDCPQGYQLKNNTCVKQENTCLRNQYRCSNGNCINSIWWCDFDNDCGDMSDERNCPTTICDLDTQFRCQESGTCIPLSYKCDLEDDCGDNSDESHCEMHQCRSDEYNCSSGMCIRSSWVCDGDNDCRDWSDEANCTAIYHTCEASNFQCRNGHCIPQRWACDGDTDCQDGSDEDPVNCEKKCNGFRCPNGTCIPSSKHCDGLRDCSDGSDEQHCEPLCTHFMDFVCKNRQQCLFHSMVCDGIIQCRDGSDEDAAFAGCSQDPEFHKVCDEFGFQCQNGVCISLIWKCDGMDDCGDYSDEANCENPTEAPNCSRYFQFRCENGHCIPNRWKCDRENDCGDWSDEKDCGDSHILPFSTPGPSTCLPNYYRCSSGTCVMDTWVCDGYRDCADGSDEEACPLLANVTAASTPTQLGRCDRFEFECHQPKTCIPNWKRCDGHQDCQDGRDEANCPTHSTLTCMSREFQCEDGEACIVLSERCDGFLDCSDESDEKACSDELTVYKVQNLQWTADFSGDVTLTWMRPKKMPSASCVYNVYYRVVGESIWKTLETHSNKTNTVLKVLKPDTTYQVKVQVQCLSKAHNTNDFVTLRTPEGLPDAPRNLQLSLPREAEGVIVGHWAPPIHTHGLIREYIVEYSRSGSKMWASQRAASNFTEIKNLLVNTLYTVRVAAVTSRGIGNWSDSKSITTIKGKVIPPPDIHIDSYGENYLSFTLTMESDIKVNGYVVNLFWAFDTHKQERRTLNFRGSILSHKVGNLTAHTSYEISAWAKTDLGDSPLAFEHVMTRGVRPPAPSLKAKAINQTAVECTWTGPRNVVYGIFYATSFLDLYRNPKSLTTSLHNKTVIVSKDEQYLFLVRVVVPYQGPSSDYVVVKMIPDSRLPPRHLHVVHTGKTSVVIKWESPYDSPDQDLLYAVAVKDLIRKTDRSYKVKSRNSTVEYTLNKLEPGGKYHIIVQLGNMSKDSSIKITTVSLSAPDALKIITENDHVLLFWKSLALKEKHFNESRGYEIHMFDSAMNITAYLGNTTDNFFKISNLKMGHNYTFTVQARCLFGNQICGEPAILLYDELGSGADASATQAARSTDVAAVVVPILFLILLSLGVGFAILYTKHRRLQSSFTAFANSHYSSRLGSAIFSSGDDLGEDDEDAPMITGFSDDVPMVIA
UniProt O15269: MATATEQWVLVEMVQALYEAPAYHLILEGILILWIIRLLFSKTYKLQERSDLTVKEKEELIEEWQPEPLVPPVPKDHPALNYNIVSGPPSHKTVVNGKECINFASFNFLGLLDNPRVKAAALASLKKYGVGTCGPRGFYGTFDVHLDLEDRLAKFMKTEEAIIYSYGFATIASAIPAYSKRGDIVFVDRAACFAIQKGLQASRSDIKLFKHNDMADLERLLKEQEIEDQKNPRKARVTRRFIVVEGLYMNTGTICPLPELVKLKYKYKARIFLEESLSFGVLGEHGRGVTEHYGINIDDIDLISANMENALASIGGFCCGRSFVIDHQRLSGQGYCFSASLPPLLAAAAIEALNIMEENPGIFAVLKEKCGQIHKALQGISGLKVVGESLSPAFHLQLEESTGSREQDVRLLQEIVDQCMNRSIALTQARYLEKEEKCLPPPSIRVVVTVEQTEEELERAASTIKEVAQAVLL

Compound: Cc1cc(ccc1-c1ccccc1)C(=O)N1CCCN(CC1)C(=O)CCl [compound 10]
Test: probe-labelled cysteine peptide fold change vs DMSO (competition) (log2 fold change); higher = less target engagement (more negative = stronger competition)
Settings: THP-1, incubation time: 4 h
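Note: competitive profiling in live THP-1 cells: cysteine peptides tagged with an iodoacetamide desthiobiotin (IA-DTB) probe, intensity after compound treatment relative to DMSO-treated cells.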

| Target | probe-labelled cysteine peptide fold change (10 µM) | probe-labelled cysteine peptide fold change (50 µM) |
| --- | --- | --- |
| SP140L_Q9H930_191_KESDQACGK (UniProt Q9H930) | -0.0796 | -0.243 |
| SRPK1_Q96SB4_647_ATAAECLR (UniProt Q96SB4) | -0.0571 | -0.00503 |
| SPATA5_Q8NB90_672_GVLLYGPPGCSK (UniProt Q8NB90) | -0.0625 | -0.17 |
| SP1_P08047_663_WHTGERPFMCTWSYCGK (UniProt P08047) | -0.228 | -0.0476 |
| SRGAP2_O75044_588_DIFHDLMACVTMDNLQER (UniProt O75044) | 0.149 | 0.306 |
| SRA1_Q9HD15_134_QVCDDISR (UniProt Q9HD15) | 0.0881 | 0.0823 |
| SP3_Q02447_686_KFVCPECSK (UniProt Q02447) | 0.045 | 0.137 |
| SNX9_Q9Y5X1_492_DLHFLMECNHEYK (UniProt Q9Y5X1) | -0.0414 | -0.16 |
| SPG7_Q9UQ90_353_GALLLGPPGCGK (UniProt Q9UQ90) | 0.0637 | -0.0291 |
| SP110_Q9HB58_468_LPVTCGEAK (UniProt Q9HB58) | 0.0849 | 0.00207 |
| SPAG5_Q96R06_589_DAAEIVLEAFCAHASQR (UniProt Q96R06) | 0.117 | 0.188 |
| SPATA5_Q8NB90_81_SANICIGRPVLLTSLNGK (UniProt Q8NB90) | 0.0626 | 0.0171 |
| SNU13_P55769_102_PVIACSVTIK (UniProt P55769) | 0.154 | 0.0502 |
| SNX27_Q96L92_30_NGGGGGGGGSGLHCAGNGGGGGGGPR (UniProt Q96L92) | -0.141 | -0.383 |
| SRPK2_P78362_223_IIHTDIKPENILMCVDDAYVR (UniProt P78362) | 0.036 | -0.0048 |
| SORD_Q00796_140_HNAAFCYK (UniProt Q00796) | 0.133 | 0.0192 |
| SPTAN1_Q13813_158_ECEDVMDWINDK (UniProt Q13813) | 0.156 | 0.35 |
| SPATS2L_Q9NUQ6_185_SDGLQWSAEQPCNPSKPK (UniProt Q9NUQ6) | -0.0225 | -0.476 |
| SOWAHD_A6NJG2_109_LCLEPR (UniProt A6NJG2) | -0.0959 | 0.267 |
| SRPK2_P78362_680_ASAGECLR (UniProt P78362) | -0.181 | -0.0361 |

| Target | probe-labelled cysteine peptide fold change (10 µM) | probe-labelled cysteine peptide fold change (50 µM) |
| --- | --- | --- |
| SPRYD3_Q8NCJ5_147_IGCGIEPVSFDVQTAQIFFTK (UniProt Q8NCJ5) | -0.324 | 0.199 |
| SRP68_Q9UHB9_87_YRGYCSR (UniProt Q9UHB9) | -0.0459 | -0.105 |
| SRP9_P49458_39_HSDGNLCVK (UniProt P49458) | 0.123 | 0.0246 |
| SPR_P35270_10_AVCLLTGASR (UniProt P35270) | -0.063 | -0.045 |
| SNX27_Q96L92_432+434_TCEGYNEIIFPHCACDSR (UniProt Q96L92) | 0.629 | 0.504 |
| SPTAN1_Q13813_2233_TYLLDGSCMVEESGTLESQLEATK (UniProt Q13813) | -0.192 | -0.216 |
| SRP9_P49458_48_VTDDLVCLVYKTDQAQDVK (UniProt P49458) | 0.189 | -0.628 |
| SNX1_Q13596_318_LQEVECEEQR (UniProt Q13596) | -0.177 | -0.146 |
| SORL1_Q92673_1302_QQCLFHSMVCDGIIQCR (UniProt Q92673) | -0.13 | 0.101 |
| SNU13_P55769_93_ACGVSRPVIACSVTIK (UniProt P55769) | 0.0687 | 0.0644 |
| SRP68_Q9UHB9_525_CSLQAAAILDANDAHQTETSSSQVK (UniProt Q9UHB9) | -0.0993 | -0.302 |
| SP110_Q9HB58_283_CIWSTPK (UniProt Q9HB58) | -0.483 | -0.666 |
| SP1_P08047_633_KQHICHIQGCGK (UniProt P08047) | -0.0751 | -0.699 |
| SPATA2_Q9UM82_41_QRPGSDECLR (UniProt Q9UM82) | -0.46 | -1.35 |
| SNRPD3_P62318_41_LIEAEDNMNCQMSNITVTYR (UniProt P62318) | 0.0675 | 0.224 |
| SREBF2_Q12772_787_ESLYCAQR (UniProt Q12772) | 0.18 | -0.116 |
| SRP19_P09132_17_FICIYPAYLNNK (UniProt P09132) | 0.124 | 0.25 |
| SRI_P30626_163_ITFDDYIACCVK (UniProt P30626) | -0.0625 | 0.000946 |
| SPTLC1_O15269_419_LLQEIVDQCMNR (UniProt O15269) | 0.137 | 0.171 |
| SORL1_Q92673_752_LEGELVPCPLAEENEFILYAVR (UniProt Q92673) | 0.124 | 0.148 |

2 entries from above, with tabs:
Target	probe-labelled cysteine peptide fold change (10 µM)	probe-labelled cysteine peptide fold change (50 µM)
SPTLC1_O15269_419_LLQEIVDQCMNR (UniProt O15269)	0.137	0.171
SORL1_Q92673_752_LEGELVPCPLAEENEFILYAVR (UniProt Q92673)	0.124	0.148
